No constants are given. Whether binding was seen depends on the method and setting. Binding seen in cells or lysates may run through a third protein. These calls come from enrichment with a bait or labelling near it, and not all partners need be listed.
Experiments:
[1] = target: Dopey1 (endogenous) (human (endogenous in HEK293T)) (UniProt B2RWN9); test: affinity purification with mass spectrometry; large-scale IP from HEK293T lysate with Mon2 or Dopey1 antibody (control IgG), Protein A/G beads; 40 mM HEPES pH 7.3, 0.1% Triton X-100, 120 mM NaCl, 4 h at 4 °C; gel slices to LC-MS
[2] = target: Mon2 (endogenous) (human (endogenous in HEK293T and HeLa)) (UniProt Q7Z3U7); test: as above

Amino acid sequences for entries named in this document (tags omitted).
UniProt B2RWN9: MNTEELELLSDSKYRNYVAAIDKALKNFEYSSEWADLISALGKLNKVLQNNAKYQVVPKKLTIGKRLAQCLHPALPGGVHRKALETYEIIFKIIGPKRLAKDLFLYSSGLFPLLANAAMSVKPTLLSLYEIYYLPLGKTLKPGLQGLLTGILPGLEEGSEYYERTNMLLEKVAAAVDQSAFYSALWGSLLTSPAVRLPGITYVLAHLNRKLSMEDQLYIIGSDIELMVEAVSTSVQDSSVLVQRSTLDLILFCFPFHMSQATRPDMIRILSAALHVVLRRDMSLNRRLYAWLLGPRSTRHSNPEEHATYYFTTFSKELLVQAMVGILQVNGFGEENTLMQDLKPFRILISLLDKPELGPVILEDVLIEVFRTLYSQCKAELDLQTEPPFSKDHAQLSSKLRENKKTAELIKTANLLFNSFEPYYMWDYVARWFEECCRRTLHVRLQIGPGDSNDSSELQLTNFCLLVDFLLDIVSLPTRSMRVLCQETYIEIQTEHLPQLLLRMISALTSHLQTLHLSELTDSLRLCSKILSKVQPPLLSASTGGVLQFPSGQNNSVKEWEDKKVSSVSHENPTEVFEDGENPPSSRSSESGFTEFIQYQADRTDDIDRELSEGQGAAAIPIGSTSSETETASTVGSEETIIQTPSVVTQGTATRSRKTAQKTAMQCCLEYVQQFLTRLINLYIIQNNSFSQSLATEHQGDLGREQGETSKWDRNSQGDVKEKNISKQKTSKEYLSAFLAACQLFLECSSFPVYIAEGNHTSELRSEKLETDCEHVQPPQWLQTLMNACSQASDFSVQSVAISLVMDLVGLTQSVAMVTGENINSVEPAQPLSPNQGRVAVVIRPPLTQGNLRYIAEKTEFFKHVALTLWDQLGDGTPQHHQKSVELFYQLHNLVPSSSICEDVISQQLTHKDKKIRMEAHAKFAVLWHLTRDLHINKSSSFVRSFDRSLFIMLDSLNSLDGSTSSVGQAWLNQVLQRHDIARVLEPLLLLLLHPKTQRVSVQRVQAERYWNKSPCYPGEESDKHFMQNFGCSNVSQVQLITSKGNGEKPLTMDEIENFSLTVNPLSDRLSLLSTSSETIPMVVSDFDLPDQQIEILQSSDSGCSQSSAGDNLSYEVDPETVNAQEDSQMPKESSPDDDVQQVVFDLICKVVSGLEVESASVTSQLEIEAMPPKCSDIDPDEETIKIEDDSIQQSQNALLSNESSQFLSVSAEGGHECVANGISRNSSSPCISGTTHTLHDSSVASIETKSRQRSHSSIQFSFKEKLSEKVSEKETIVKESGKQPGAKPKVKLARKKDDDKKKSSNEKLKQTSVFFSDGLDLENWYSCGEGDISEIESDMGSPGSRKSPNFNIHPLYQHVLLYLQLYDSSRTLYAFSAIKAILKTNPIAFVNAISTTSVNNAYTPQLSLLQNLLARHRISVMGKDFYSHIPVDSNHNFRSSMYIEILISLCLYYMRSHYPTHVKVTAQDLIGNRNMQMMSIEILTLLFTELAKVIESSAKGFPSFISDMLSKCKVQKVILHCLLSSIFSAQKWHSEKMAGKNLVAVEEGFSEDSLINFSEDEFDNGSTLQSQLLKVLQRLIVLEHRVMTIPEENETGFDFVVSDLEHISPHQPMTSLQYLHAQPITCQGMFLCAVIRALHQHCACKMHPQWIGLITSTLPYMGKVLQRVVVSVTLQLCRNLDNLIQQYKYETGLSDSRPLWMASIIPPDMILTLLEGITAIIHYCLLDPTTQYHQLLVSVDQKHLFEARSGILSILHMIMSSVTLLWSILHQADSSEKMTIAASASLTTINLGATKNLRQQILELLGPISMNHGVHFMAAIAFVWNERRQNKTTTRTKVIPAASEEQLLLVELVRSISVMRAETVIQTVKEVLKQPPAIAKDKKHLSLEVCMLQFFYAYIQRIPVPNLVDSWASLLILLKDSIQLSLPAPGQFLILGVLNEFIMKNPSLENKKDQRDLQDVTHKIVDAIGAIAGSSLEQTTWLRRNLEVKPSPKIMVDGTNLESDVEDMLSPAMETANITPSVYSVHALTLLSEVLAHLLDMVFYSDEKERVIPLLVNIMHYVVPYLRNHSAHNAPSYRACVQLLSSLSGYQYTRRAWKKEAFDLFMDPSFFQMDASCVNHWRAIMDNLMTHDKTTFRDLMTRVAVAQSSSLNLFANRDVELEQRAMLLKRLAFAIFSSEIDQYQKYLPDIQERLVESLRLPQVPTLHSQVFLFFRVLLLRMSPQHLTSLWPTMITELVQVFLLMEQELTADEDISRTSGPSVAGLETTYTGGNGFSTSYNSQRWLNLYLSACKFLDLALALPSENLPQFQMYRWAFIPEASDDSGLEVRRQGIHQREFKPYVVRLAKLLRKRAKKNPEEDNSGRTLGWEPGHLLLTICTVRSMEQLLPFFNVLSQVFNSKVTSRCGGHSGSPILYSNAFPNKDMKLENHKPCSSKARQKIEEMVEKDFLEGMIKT
UniProt Q7Z3U7: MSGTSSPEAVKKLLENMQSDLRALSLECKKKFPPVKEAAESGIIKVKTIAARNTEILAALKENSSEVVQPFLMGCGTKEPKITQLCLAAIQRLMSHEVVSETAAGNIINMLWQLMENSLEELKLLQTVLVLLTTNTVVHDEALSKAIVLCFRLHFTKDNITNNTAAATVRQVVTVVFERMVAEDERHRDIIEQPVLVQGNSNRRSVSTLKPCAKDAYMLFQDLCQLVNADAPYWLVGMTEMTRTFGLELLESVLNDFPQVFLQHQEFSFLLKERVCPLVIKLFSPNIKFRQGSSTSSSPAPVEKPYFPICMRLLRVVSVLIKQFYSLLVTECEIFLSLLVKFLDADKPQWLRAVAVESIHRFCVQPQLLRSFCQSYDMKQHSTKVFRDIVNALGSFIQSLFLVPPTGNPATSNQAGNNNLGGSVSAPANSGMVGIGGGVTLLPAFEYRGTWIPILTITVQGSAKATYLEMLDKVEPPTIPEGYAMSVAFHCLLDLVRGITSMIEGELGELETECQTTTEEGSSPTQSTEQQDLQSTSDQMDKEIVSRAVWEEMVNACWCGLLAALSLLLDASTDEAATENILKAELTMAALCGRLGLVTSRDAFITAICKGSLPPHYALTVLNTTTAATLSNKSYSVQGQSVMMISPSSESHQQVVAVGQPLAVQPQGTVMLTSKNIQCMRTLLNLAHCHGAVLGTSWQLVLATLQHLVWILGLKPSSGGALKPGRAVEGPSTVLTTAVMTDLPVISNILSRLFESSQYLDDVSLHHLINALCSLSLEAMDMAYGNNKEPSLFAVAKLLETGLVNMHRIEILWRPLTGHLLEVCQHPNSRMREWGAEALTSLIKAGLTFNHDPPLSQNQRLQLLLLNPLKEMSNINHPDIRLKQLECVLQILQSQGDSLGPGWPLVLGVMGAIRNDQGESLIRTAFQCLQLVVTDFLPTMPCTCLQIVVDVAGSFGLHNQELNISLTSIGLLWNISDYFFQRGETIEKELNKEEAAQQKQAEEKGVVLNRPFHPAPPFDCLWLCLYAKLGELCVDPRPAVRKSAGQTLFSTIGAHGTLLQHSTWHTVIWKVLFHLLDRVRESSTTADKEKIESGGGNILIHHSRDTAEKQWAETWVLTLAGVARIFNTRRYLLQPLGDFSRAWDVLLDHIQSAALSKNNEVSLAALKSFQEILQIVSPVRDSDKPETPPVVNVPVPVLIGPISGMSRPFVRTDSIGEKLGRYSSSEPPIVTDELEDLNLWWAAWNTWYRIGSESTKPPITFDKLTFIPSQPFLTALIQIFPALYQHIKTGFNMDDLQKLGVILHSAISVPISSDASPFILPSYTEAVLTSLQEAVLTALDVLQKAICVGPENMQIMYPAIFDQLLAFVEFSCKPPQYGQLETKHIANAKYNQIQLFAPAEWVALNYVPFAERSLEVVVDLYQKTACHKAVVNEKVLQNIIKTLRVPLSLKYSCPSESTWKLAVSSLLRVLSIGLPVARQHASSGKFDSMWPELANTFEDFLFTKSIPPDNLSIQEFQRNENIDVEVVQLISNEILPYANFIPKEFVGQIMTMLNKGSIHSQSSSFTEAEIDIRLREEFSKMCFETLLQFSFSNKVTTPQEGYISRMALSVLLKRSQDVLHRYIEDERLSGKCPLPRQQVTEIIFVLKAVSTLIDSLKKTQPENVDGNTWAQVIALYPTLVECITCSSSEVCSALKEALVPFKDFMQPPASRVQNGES

Row | binding [1] | binding [2] | Substance
1 | binds |  | Mon2 (endogenous) (from UniProt Q7Z3U7 1-1717)
2 |  | binds | Dopey1 (endogenous) (from UniProt B2RWN9 1-2456)
